The other results are listed elsewhere or left out. Values are raw readings; no control value is given beside them.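 Primary screen: polymyxin B was added at a level permeabilizing Salmonella outer membranes while sparing inner membranes. DMSO wells, both with and without polymyxin B, established maximum growth. Plate-to-plate variation meant each plate was ranked on its own, and the lowest-OD600 compounds were selected as hits.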
System: Salmonella enterica serovar Typhimurium SL1344
Test: bacterial growth OD600 after 18 h with compound and polymyxin B; higher = more bacterial growth (less inhibition)
Conditions: 50 µM, Mueller-Hinton broth

Compound | bacterial growth OD600 (polymyxin B 0.75 µg/mL) | bacterial growth OD600 (polymyxin B 1 µg/mL)
O=C(c1ccsc1)N1CCOC(Cc2ccccc2)C1 (centres undefined) | 0.856 | –
CN(Cc1ccccc1)C1CCCN(Cc2ccc(O)cc2)C1 (centres undefined) | – | 0.812
OCC1(CCc2ccccc2)CCCN(Cc2cc3ccccc3o2)C1 (centres undefined) | – | 0.69
CC(C)n1cc(CN2CCC(CO)(Cc3ccccc3Cl)CC2)cn1 | – | 0.57
O=C(CCC1CCN(C(=O)CCC(=O)c2ccccc2)CC1)Nc1ccccc1 | – | 1.07
COc1ccc(C(=O)NC2CCCN(Cc3ccccc3F)C2)c(OC)c1OC (centres undefined) | – | 0.909
COC(=O)C1CCN(CC2(O)CCCN(Cc3cccc(F)c3F)C2=O)CC1 (centres undefined) | – | 0.869
COc1cc(=O)n2c(c1C(=O)N(C)Cc1nonc1C)CCN(C(=O)C1(C)CCCCC1)CC2 | 0.915 | –
CCCN1CCC(NC2CCCc3nc(-c4ccccc4)ncc32)CC1 (centres undefined) | 0.902 | –

— the supplement of paper PMC12889115
